Values quoted from earlier work in patent publication US20210052597A1, “HETEROCYCLIC COMPOUNDS USEFUL AS ANTIBACTERIAL AGENTS” (CADILA HEALTHCARE LIMITED, priority 2018, published 2021).
Some results were stated once for a whole list of compounds, not compound by compound.

Assays:
Settings in all cases: from WO 2018172925; cited from earlier work
[1] = system: E. coli ATCC 25922
[2] = system: S. aureus-ATCC 29231
[3] = system: MRSA ATCC-33591

COc1ccc2c(c1)c(CCN1CCC(NCc3ccc4c(c3)OCCO4)CC1)cc(=O)n2C [VT-03-00043]
≥ 16 µg/mL: MIC E. coli ATCC 25922 [1] | MIC S. aureus-ATCC 29231 [2] | MIC MRSA ATCC-33591 [3]

COc1ccc2c(c1)c(CCN1CCC(NCc3ccc4c(c3)NC(=O)CO4)CC1)cc(=O)n2C [VT-03-00042]
≥ 16 µg/mL: MIC E. coli ATCC 25922 [1] | MIC S. aureus-ATCC 29231 [2] | MIC MRSA ATCC-33591 [3]
